These are yes or no findings as the source states them, for the method shown. Some entries that bind do so weakly or less than the wild type.
target: EGFR (UniProt P00533); assay: peptide screen, Example 48

Binder	binding
LSSPCYWTTWGKECFIIR [EGA849]	binds
LPDGCYWTTWGKECFMPR [EGA841]	binds
MPEGCFWAIWGRECFLLP [EGA858]	binds
LNEHCYWALWGKECFLPR [EGA837]	binds
LMGDCWWTVWGKECLLQP [EGA865]	binds
IPDGCYWAIWGRECFLLP [EGA860]	binds
LPEGCYWAIWGKECHMTP [EGA876]	binds
LTPPCYWTIWGKECFMRQ [EGA843]	binds
LPEGCWWSPWGRECLLLP [EGA838]	binds
IHDPCYWTVWGRECLLLP [EGA863]	binds
FPEGCWWALWGKECFLQP [EGA850]	binds
LPDPCWWAPWGRECVLMP [EGA859]	binds
LPEGCWWSVWGKECLMLP [EGA869]	binds
LPDSCWWSTWGRECILLP [EGA834]	binds
LATPCYWTTWGKECLIPR [EGA870]	binds
VPDSCWWSQWGRECLLPP [EGA868]	binds
LPDGCYWSMWGRECFLVP [EGA832]	binds
VPQGCYWATWGRECYLLP [EGA833]	binds
LPEGCYWSVWGKECLLES [EGA844]	binds
FPDGCYWAIWGRECLLQP [EGA847]	binds
INPPCYWTTWGKECFLHR [EGA872]	binds
IPEGCWWQPWALECFLLP [EGA878]	binds

Binder	binding
LPEGCWWSAWGRECILLQ [EGA864]	binds
LLLGCSWHFWVYECLPPP [EGA871]	binds
LPEGCWWSIWGKECLLLP [EGA875]	binds
LPQGCYWAVWGRECLLLP [EGA854]	binds
LPEGCWWTQWGKECHLAP [EGA873]	binds
LPAPCYWTTWGKECLLQH [EGA835]	binds
LPAPCYWTTWGKECFLLR [EGA861]	binds
LPEDCWWAIWGRECLLTP [EGA852]	binds
LPAGCWWSLWGKECYLLP [EGA855]	binds
LPAGCWWSVWGRECLLMP [EGA857]	binds
LSGGCYWTTWGRECILLP [EGA848]	binds
LPEECWWAIWGRECHLLP [EGA856]	binds
LPEGCWWSPWGKECLLMP [EGA842]	binds
LPDGCWWSVWGRECLMLP [EGA851]	binds
FPAGCYWAHWGRECLLLP [EGA874]	binds
LPEGCFWTVWGKECLLMP [EGA840]	binds
LPEPCYWTTWGKECFMIH [EGA853]	binds
LPAPCYWTTWGKECLMPR [EGA831]	binds
LTDSCYWTTWGRECFLIP [EGA862]	binds
LTDQCYWATWGRECILLR [EGA846]	binds
LQEGCFWAVWGKECILLP [EGA836]	binds

Further lines, results first:

binding	Binder
binds	YAEHCRVFPTDWICTLRP [EGA893]
binds	YGQHCSLFPTDWICSLMT [EGA894]
binds	ISQGCWWSKWGRECLLPP [EGA885]
binds	YAEHCRQFRTDWICTLMT [EGA895]
binds	YPEHCWWFPSDWICTLMT [EGA888]
binds	LPPRCLWNPWGPECFLIH [EGA881]
binds	YAEHCTQFPTDWICTLTS [EGA903]
binds	RPDSCYWTTWGRECLWPR [EGA883]
binds	YSEHCYLFPTDWICTLPT [EGA905]
binds	LPERCWWAIWGRECILLP [EGA884]
binds	YAEHCWYFPTDWICTLT [EGA898]
binds	YAEHCWLFPTDWICSLMP [EGA901]
binds	YAEHCWRFPSDWICTLMT [EGA889]
binds	YVDHCWDFPTDWICTLLS [EGA906]
binds	LTAPCWWTSWGRECYLFG [EGA882]
binds	YADHCLQFPLDWICTLMK [EGA902]
binds	IAEGCWWSIWGKECFLLP [EGA879]
binds	YADHCRLFPNDWICTLIT [EGA890]
binds	YAGHCRDFPSDWICSLVP [EGA897]
binds	YAQHCYLFPMDWICTLTT [EGA891]
binds	YQEHCWLFPTDWICSLTS [EGA899]
binds	IPHGCWWAIWGRECLLLP [EGA886]
binds	YADHCCHFPADWICTLNA [EGA900]
binds	YAEHCRQFPSDWICTLMT [EGA904]
binds	YAEHCLTFPTDWICSLAQ [EGA896]
binds	YSEHCWQFPDDWICTLMT [EGA892]
binds	LPEPCYWTTWGKECHLPN [EGA880]
